Measured values reported in patent US20240360202A1.
No constants are given. Whether binding was seen depends on the method and setting. For some assays here: A result given as binding can be weak or reduced; the word gives no strength.

Experiments:
[1] = target: HLA-A2 on the cell lines of FIG. 3 (human); test: flow cytometry (MFI) on a panel of cell lines; mAb at 3 ug/ml, plotted against BB7 (HLA-A2) MFI
[2] = target: HLA-A2 on the cell lines of FIG. 3 (human); test: flow cytometry (MFI) on a panel of cell lines; mAb plotted against BB7 (HLA-A2) MFI

B1: mAb 2A5 (antibody, V domains shown)
VH: EVQLVQSGGGLVKPGGSLRLSCAASGFTFSDYYMSWIRQAPGKGLEWVSYISSSGSTIYYADSVKGRFTISRDNAKNSLYLQMNSLRAEDTAVYYCARGPLTADAFDIWGQGTMVTVSS
VL: QSVLTQPPSASGTPGQRVTISCSGSSSNIGSNTVNWYQQLPGTAPKLLIYNNNQRPSGVPDRFSGSKSGTSAALAISGLQSEDEADYHCATWDDTRNGPEFGGGTKLTVL
binding [1]: binds

B2: mAb 3F8 (antibody, V domains shown)
VH: EVQLLESGGGLVQPGGSLRLSCAASGFTFSDYYMSWVRQAPGKGLEWVSGIYGGGGSTRYADSVKGRFTISRDNSKNTLYLQMNSLRAEDTAVYYCAKDRWGYSSGWHNFDFWGQGTLVTVSS
VL: DIVMTQSPDSLAVSLGERATINCKSSQSVLRSGNNKNDLAWYQQKPGQPPKLLIYWASTRESGVPDRFSGSGSGTDFTLTISSLQAEDVAVYYCQQSSSEPITFGQGTKVEIK
binding [2]: no binding (tested: 3 ug/ml)
